Earlier results, collected in patent US20060240077A1, “Methodologies for improving the quality of meat, health status of animals and impact on environment” (priority 2003, published 2006).

Conditions: for Odour threshold air, High: highest literature value; for Odour threshold air, Low: lowest literature value

| SMILES | Odour threshold air, High [mg/m3] | Odour threshold air, Low [mg/m3] |
| --- | --- | --- |
| CCCOC(=O)CC [Propylpropionate] | 0.26 | 0.23 |
| c1ccc2[nH]ccc2c1 [Indole] | 0.0006 | 0.0006 |
| CSSSC [Dimethyltrisulfide] | 0.0073 | 0.0073 |
| CCC(C)=O [Treatment 2-Butanon, 2-Butanon] | 250 | 0.75 |
| CCCC(C)=O [Treatment 2-Pentanon, 2-Pentanon] | 48 | 11 |
